# The other results are listed elsewhere or left out.
# Experiments:
# Test in all cases: glycan array binding signal (z-score within array); higher = stronger binding
# Conditions in all cases: glycan notation: IUPAC condensed, linker removed
# [1] = target: GlcNAc(b1-3)Gal(b1-4)GlcNAc(b1-3)Gal(b1-4)GlcNAc(b1-3)GalNAc
# Method in brief: (§1)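 Glycan array binding is given as a within-array Z-score, which can be read as non-binding when negative. The arrays, 3228 of them, came from the Consortium for Functional Glycomics database and were retained only where the protein sequence was available. Z-scores were averaged across arrays of the same protein sequence at different concentrations or buffers and across linkers.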
# [2] = target: GlcNAc(b1-3)Gal(b1-4)GlcNAc(b1-3)GalNAc
# Method in brief: as §1
# [3] = target: GlcNAc(b1-3)Gal(b1-4)GlcNAc(b1-3)[GlcNAc(b1-3)Gal(b1-4)GlcNAc(b1-3)]GalNAc
# Method in brief: as §1
# [4] = target: GlcNAc(b1-3)Gal(b1-4)GlcNAc(b1-6)[Gal(b1-3)]GalNAc
# Method in brief: as §1
# [5] = target: GlcNAc(b1-3)Gal(b1-4)GlcNAc(b1-6)[GlcNAc(b1-3)Gal(b1-3)]GalNAc
# Method in brief: as §1
# [6] = target: GlcNAc(b1-3)Gal(b1-4)GlcNAc(b1-6)[GlcNAc(b1-3)]Gal(b1-4)GlcNAc
# Method in brief: as §1
# GlcNAc(b1-3)GalNAc = target: GlcNAc(b1-3)GalNAc
# Method in brief: as §1
# GlcNAc(b1-3)Man = target: GlcNAc(b1-3)Man
# Method in brief: as §1
# [7] = target: GlcNAc(b1-3)[GlcNAc(b1-4)][GlcNAc(b1-6)]GlcNAc
# Method in brief: as §1
# [8] = target: GlcNAc(b1-3)[GlcNAc(b1-6)]Gal(b1-4)GlcNAc
# Method in brief: as §1
# [9] = target: GlcNAc(b1-3)[GlcNAc(b1-6)]GalNAc
# Method in brief: as §1
# [10] = target: GlcNAc(b1-4)Gal(b1-4)GlcNAc
# Method in brief: as §1
# GlcNAc(b1-4)GlcNAc = target: GlcNAc(b1-4)GlcNAc
# Method in brief: as §1
# [11] = target: GlcNAc(b1-4)GlcNAc(b1-4)GlcNAc
# Method in brief: as §1
# [12] = target: GlcNAc(b1-4)GlcNAc(b1-4)GlcNAc(b1-4)GlcNAc(b1-4)GlcNAc
# Method in brief: as §1
# [13] = target: GlcNAc(b1-4)GlcNAc(b1-4)GlcNAc(b1-4)GlcNAc(b1-4)GlcNAc(b1-4)GlcNAc
# Method in brief: as §1
# [14] = target: GlcNAc(b1-4)[GlcNAc(b1-6)]GalNAc
# Method in brief: as §1
# [15] = target: GlcNAc(b1-6)Gal(b1-4)GlcNAc
# Method in brief: as §1
# GlcNAc(b1-6)GalNAc = target: GlcNAc(b1-6)GalNAc
# Method in brief: as §1
# [16] = target: GlcNAc6S(b1-3)Gal(b1-4)GlcNAc
# Method in brief: as §1
# Kdn(a2-3)Gal(b1-3)GalNAc = target: Kdn(a2-3)Gal(b1-3)GalNAc
# Method in brief: as §1
# Kdn(a2-3)Gal(b1-3)GlcNAc = target: Kdn(a2-3)Gal(b1-3)GlcNAc
# Method in brief: as §1
# Kdn(a2-3)Gal(b1-4)Glc = target: Kdn(a2-3)Gal(b1-4)Glc
# Method in brief: as §1
# Kdn(a2-3)Gal(b1-4)GlcNAc = target: Kdn(a2-3)Gal(b1-4)GlcNAc
# Method in brief: as §1
# [17] = target: Kdn(a2-3)Gal(b1-4)[Fuc(a1-3)]GlcNAc
# Method in brief: as §1
# Kdn(a2-6)Gal(b1-4)GlcNAc = target: Kdn(a2-6)Gal(b1-4)GlcNAc
# Method in brief: as §1
# [18] = target: Man(a1-2)Man(a1-2)Man(a1-3)Man
# Method in brief: as §1
# [19] = target: Man(a1-2)Man(a1-2)Man(a1-6)[Man(a1-3)]Man
# Method in brief: as §1
# Man(a1-2)Man(a1-3)Man = target: Man(a1-2)Man(a1-3)Man
# Method in brief: as §1
# [20] = target: Man(a1-2)Man(a1-3)[Man(a1-2)Man(a1-6)]Man
# Method in brief: as §1
binder,measurement,setting,value
TAL6-6LysM (Trichoderma atroviride) (protein) AASKLGVPQPAQRDQVNCQLYAVQPNDNCIDISSKNNITYAQLLSWNPSLSSTCSNLASLNSSSICVSNPKGTFSISSNTVGATDIATTTAPVPSPTLDQTTSRCAKYYQVSDGDDCSHLTAQFAITLKDFIFLNSEVWQNCTNLELGYYYCVEPVGYISTYPGYLPTATTKPFNQTSATSLPYDGDPWARFSSNSSVIPIANGTRVDCYSYVYVKNLTENLFADCWNMASMYEITREELVLWNPSLGNDGSSGSNLSGAEASQVASSIAIPTTAPSSITTNLYTYPCTVAANISYCVALVSSTGALPTNTAPPGPHASGEISNCTAWFAPEAYDTCKSILDIFEMSFANFYKMNPSVGPDCSGLAVGTNYCVSTYPNGEDPNDDWDGDDSIPSISPTGIITPTPTQSGMVSNCNKFYDVHSNDGCSAIASSQHVDLSSLYKWNPAIKTDCSGLQASVYVCIGILTTSMSTTSKLPTTTSKPSTTSKPPTGITTPTPTQSGMVKNCNKFYDVHSGDGCSAIASSQKVNLSSFYLWNPAVKTDCSGLQASVFVCIGTLTTSMSTTTSKLPTTTSKPSTTSKPPTGIITPTPTQNGMVKNCNKFYDVHSGDGCSAIASSQKVNLSSFYLWNPAVKTDCSGLQASVFVCVGTATTTTAAGITTPTPTQSGMVSGCNKFYDVHAGDGCSAIASSQKIALSSLYKWNPAVKTDCSGLQASVYICIGVGNAAAARVTGAAASFLEQKLISEEDLNSAVDHHHHHH,glycan array binding signal (z-score),[1],-0.562
same,glycan array binding signal (z-score),[2],0.442
same,glycan array binding signal (z-score),[3],0.159
same,glycan array binding signal (z-score),[4],-0.872
same,glycan array binding signal (z-score),[5],-0.153
same,glycan array binding signal (z-score),[6],-0.351
same,glycan array binding signal (z-score),GlcNAc(b1-3)GalNAc,-0.098
same,glycan array binding signal (z-score),GlcNAc(b1-3)Man,-0.043
same,glycan array binding signal (z-score),[7],1.9
same,glycan array binding signal (z-score),[8],-0.188
same,glycan array binding signal (z-score),[9],-1.08
same,glycan array binding signal (z-score),[10],-0.967
same,glycan array binding signal (z-score),GlcNAc(b1-4)GlcNAc,-0.197
same,glycan array binding signal (z-score),[11],0.25
same,glycan array binding signal (z-score),[12],0.737
same,glycan array binding signal (z-score),[13],-0.324
same,glycan array binding signal (z-score),[14],1
same,glycan array binding signal (z-score),[15],-1.19
same,glycan array binding signal (z-score),GlcNAc(b1-6)GalNAc,1.32
same,glycan array binding signal (z-score),[16],0.253
same,glycan array binding signal (z-score),Kdn(a2-3)Gal(b1-3)GalNAc,-0.313
same,glycan array binding signal (z-score),Kdn(a2-3)Gal(b1-3)GlcNAc,-1.18
same,glycan array binding signal (z-score),Kdn(a2-3)Gal(b1-4)Glc,-0.559
same,glycan array binding signal (z-score),Kdn(a2-3)Gal(b1-4)GlcNAc,0.21
same,glycan array binding signal (z-score),[17],1.88
same,glycan array binding signal (z-score),Kdn(a2-6)Gal(b1-4)GlcNAc,2.71
same,glycan array binding signal (z-score),[18],-0.998
same,glycan array binding signal (z-score),[19],-1.13
same,glycan array binding signal (z-score),Man(a1-2)Man(a1-3)Man,-0.128
same,glycan array binding signal (z-score),[20],-0.348

# Random excerpt: 2 records from the list.
binder,measurement,setting,value
TAL6-6LysM (Trichoderma atroviride) (protein) AASKLGVPQPAQRDQVNCQLYAVQPNDNCIDISSKNNITYAQLLSWNPSLSSTCSNLASLNSSSICVSNPKGTFSISSNTVGATDIATTTAPVPSPTLDQTTSRCAKYYQVSDGDDCSHLTAQFAITLKDFIFLNSEVWQNCTNLELGYYYCVEPVGYISTYPGYLPTATTKPFNQTSATSLPYDGDPWARFSSNSSVIPIANGTRVDCYSYVYVKNLTENLFADCWNMASMYEITREELVLWNPSLGNDGSSGSNLSGAEASQVASSIAIPTTAPSSITTNLYTYPCTVAANISYCVALVSSTGALPTNTAPPGPHASGEISNCTAWFAPEAYDTCKSILDIFEMSFANFYKMNPSVGPDCSGLAVGTNYCVSTYPNGEDPNDDWDGDDSIPSISPTGIITPTPTQSGMVSNCNKFYDVHSNDGCSAIASSQHVDLSSLYKWNPAIKTDCSGLQASVYVCIGILTTSMSTTSKLPTTTSKPSTTSKPPTGITTPTPTQSGMVKNCNKFYDVHSGDGCSAIASSQKVNLSSFYLWNPAVKTDCSGLQASVFVCIGTLTTSMSTTTSKLPTTTSKPSTTSKPPTGIITPTPTQNGMVKNCNKFYDVHSGDGCSAIASSQKVNLSSFYLWNPAVKTDCSGLQASVFVCVGTATTTTAAGITTPTPTQSGMVSGCNKFYDVHAGDGCSAIASSQKIALSSLYKWNPAVKTDCSGLQASVYICIGVGNAAAARVTGAAASFLEQKLISEEDLNSAVDHHHHHH,glycan array binding signal (z-score),[7],1.9
same,glycan array binding signal (z-score),[11],0.25

# From the supplement of paper PMC8728848
